Reference: patent US20240285649A1, “PROGESTOGEN FORMULATIONS FOR USE IN MODULATING A CYTOKINE STORM MEDIATOR” (Shenzhen Evergreen Therapeutics Co., Ltd, priority 2020, published 2024)
“Also recorded” adds a separate entry of the source. At least one structure is not confirmed: it was looked up by name or label, or the drawing left a doubt.

Key:
[1] = tested on: smoke exposure-induced COPD rats; test: Pharmacodynamic study of 17-HPC inhalation in smoke exposure-induced COPD rats (lung function, BALF differential count, HE staining, body weight); assay type: in vivo, Wistar rats
Method: (§1) Seventy-two Wistar rats were randomly divided into the blank control group, model group, 17-HPC (0.5 mg/ml, 0.25 mg/ml and 0.1 mg/ml) groups, BUD (0.5 mg/ml and 0.1 mg/ml) groups, and combination treatment (0.5 mg/ml BUD+0.25 mg/ml 17-HPC and 0.1 mg/ml BUD+0.25 mg/ml 17-HPC) groups. Drug concentration is the nebulized solution concentration. Lung function (forced vital capacity) of rats was measured using the small animal spirometer, and differential count in the BALF was determined under the microscope. Serum and BALF cytokine (IL-6, IL-17, TNF-α and IL-β) levels were measured by ELISA. Inflammatory cell infiltration area and MLI in rat lung tissues were determined by HE staining.

[2] = tested on: IL-6, IL-17, TNF-α and IL-1β; test: Serum and BALF cytokine levels by ELISA in COPD rats; assay type: in vivo, Wistar rats; settings: aside from the low dose (0.1 mg/ml) 17-HPC group
Method: as §1, with “To examine the in vitro and in vivo efficacy of 17-HPC inhalation in chronic obstructive pulmonary disease (COPD) rats, a rat model of COPD was established by exposing Wistar rats to CS for 1 hour every day for a total of 180 days. Seventy-two” for “Seventy-two”

CCCC1O[C@@H]2C[C@H]3[C@@H]4CCC5=CC(=O)C=C[C@]5(C)[C@H]4[C@@H](O)C[C@]3(C)[C@]2(C(=O)CO)O1 (stereo partly shown) [BUD, budesonide]
MLI ([1]; lung tissue, HE staining): decreased in the other 17-HPC groups and BUD groups in a dose-dependent manner
percentage of neutrophils in rat BALF ([1]; nebulized inhalation): reduced the percentage of neutrophils in rat BALF; also recorded: superior to 17-HPC in reducing the proportion of BALF neutrophils at the equivalent doses
FEV0.2/FVC % ([1]; nebulized inhalation, vs model group, after 24 weeks of CS exposure): higher in the BUD group than in the model group
TNF-α, IL-1β, IL-6 and IL-17 levels in the BALF [2]: can downregulate TNF-α, IL-1β, IL-6 and IL-17 levels in the BALF
